Reference: US20160216264A1 (WASHINGTON UNIVERSITY, published 2016)
These are yes or no findings as the source states them, for the method shown. Binding calls can cover weak binding; strength is not graded here.

Assays:
[1] = biological target: recombinant MIOX (rMIOX), thrombin-cleaved from GST-MIOX (human); test: Western blot
[2] = biological target: human myo-inositol oxygenase (MIOX) (human); test: Western blot of human kidney homogenate
[3] = biological target: human myo-inositol oxygenase (MIOX) (human); test: Western blot of normal human kidney homogenate

Measured: binding

B1: mouse monoclonal anti-MIOX antibody 12H06 (antibody, IgG2b, V domains shown)
VH: QVQLQQPGAELVRPGTSVKLSCKASGYTFTSYWMHWVKQRPGQGLEWIGLIDPSDSYTNYNQKFKGKATLTVDTSSSTASMQLSSLTSEDSAVYYCVRTYYHSSYFFAYWGQGTLVTVSS
VL: DIVVTQSPASFAVSLGQRATISCRASKSVSTSGYSYINWYQQKPGQPPKLLIYLASNLESGVPARFSGSGSGTDFTLNIHPVEEEDAATYYCQHSRELPLTFGAGTRLELK
notes: the VH entry runs a few residues into CH1; also called mAb 12H06
binds: [1] | [2] | [3]
